The full ranking holds about 3,200 compounds; the median of “TSA(with NAD+) / Primary screening (TSA) / delta Tm (K)” is about -0.04, and the highest 2% start at about 0.37. The list shows a part of the results.

Sequences of proteins named here, by UniProt entry; tags and fusion partners are left off. Residues count along the entry.
UniProt Q96EB6, 2-747 limits assumed: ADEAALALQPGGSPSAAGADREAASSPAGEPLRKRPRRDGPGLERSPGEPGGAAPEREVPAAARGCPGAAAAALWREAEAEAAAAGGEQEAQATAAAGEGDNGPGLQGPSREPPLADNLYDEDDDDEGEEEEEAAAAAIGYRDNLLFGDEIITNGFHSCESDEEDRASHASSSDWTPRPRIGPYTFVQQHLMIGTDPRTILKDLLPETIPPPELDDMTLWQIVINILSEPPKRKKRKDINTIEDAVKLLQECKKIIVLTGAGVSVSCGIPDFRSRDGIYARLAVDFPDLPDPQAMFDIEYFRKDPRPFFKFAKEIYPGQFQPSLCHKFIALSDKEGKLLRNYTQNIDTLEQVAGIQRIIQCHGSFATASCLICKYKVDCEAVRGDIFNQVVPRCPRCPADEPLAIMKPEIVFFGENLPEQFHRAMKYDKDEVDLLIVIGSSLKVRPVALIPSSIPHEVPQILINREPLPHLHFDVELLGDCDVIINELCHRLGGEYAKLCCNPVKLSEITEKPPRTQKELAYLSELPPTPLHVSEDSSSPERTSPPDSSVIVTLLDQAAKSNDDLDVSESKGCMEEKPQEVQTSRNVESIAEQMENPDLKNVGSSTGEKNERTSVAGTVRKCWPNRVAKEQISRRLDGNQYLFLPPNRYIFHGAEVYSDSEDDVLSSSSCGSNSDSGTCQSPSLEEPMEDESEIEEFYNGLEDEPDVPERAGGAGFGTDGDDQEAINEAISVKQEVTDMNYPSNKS

These results are taken from paper PMC6925144, “A prospective compound screening contest identified broader inhibitors for Sirtuin 1” (Scientific Reports, 2019).

The assay concerns the target NAD-dependent deacetylase Sirtuin 1 (human, UniProt Q96EB6). In words: primary screen, delta tm. Also on record: single well (n = 1, as 'the same TSA'). The note with it: 10 µM.
On to `Cc1ccnc(NC(=O)C2CCN(C(=O)c3cccc(S(=O)(=O)NCC4CCCO4)c3)CC2)c1` (stereo not drawn), for which the “TSA(with NAD+) / Primary screening (TSA) / delta Tm (K)” value is -0.28 K.

For `COc1ccc2c(COC(=O)c3ccc(=O)n(Cc4ccccc4)n3)cc(=O)oc2c1`, the “TSA(with NAD+) / Primary screening (TSA) / delta Tm (K)” value was -0.13 K.

As to `CCOc1ccc(S(=O)(=O)N2CCOCC2)cc1NC(=O)C1=COCCO1`, the “TSA(with NAD+) / Primary screening (TSA) / delta Tm (K)” value is given as -0.11 K.

`O=C1NCCN1c1cccc(N2C(=O)Cc3ccccc3C2=O)c1`: the “TSA(with NAD+) / Primary screening (TSA) / delta Tm (K)” value is reported as -0.31 K.

For `NC(=O)NC(CC(=O)OCC(=O)NC12CC3CC(CC(C3)C1)C2)c1cccc(Oc2ccccc2)c1` (stereo not drawn), the “TSA(with NAD+) / Primary screening (TSA) / delta Tm (K)” value stood at 0.07 K.

Consider `CC(=O)c1c[nH]c(C(=O)NCCc2ccc(-c3csc(C)n3)s2)c1`, for which the “TSA(with NAD+) / Primary screening (TSA) / delta Tm (K)” value was -0.13 K.

As to `OCCNc1ccc2nnc(C(F)(F)F)n2n1`, the “TSA(with NAD+) / Primary screening (TSA) / delta Tm (K)” value is -0.09 K.

For the compound `Cc1ncc(CN2CCC(Nc3ccc4nnnn4n3)C(C)C2)s1` (stereo not drawn), the “TSA(with NAD+) / Primary screening (TSA) / delta Tm (K)” value amounted to 0.09 K.

As to `Cc1ccc(C(C)(C)C)cc1SCC(=O)Nc1cc(C(N)=O)cc(C(N)=O)c1`, the “TSA(with NAD+) / Primary screening (TSA) / delta Tm (K)” value was 0.06 K.

In the case of `NC(=O)C1CCN(c2ncnc3c2c(-c2ccccc2)cn3-c2ccc(Cl)cc2)CC1`, the “TSA(with NAD+) / Primary screening (TSA) / delta Tm (K)” value is given as 0.06 K.

As to `O=C(Nc1cc(S(=O)(=O)N2CCOCC2)ccc1O)C1=COCCO1`, the “TSA(with NAD+) / Primary screening (TSA) / delta Tm (K)” value was -0.16 K.

Turning to `CC1CN=C(Nc2ccc(Cl)c(Cl)c2)S1` (stereo not drawn), the “TSA(with NAD+) / Primary screening (TSA) / delta Tm (K)” value was 0.15 K.

`O=C(Nc1cccc(S(=O)(=O)N2CCOCC2)c1)c1ccccc1Cc1ccccc1`: the “TSA(with NAD+) / Primary screening (TSA) / delta Tm (K)” value is listed as -0.09 K.

`Brc1cccc(-c2nc(CSc3nnc(NCc4ccco4)s3)cs2)c1`: the “TSA(with NAD+) / Primary screening (TSA) / delta Tm (K)” value is 0.22 K.

Regarding `NC(=O)C1CCN(c2ncnc3cc(-c4ccc(Br)cc4)sc23)CC1`, the “TSA(with NAD+) / Primary screening (TSA) / delta Tm (K)” value is -0.03 K.

For `Cc1ccc(S(=O)(=O)N(C)c2ccc(C(=O)NCCCN3CCC(C(N)=O)CC3)cc2)cc1`, the “TSA(with NAD+) / Primary screening (TSA) / delta Tm (K)” value is -0.14 K.

For the compound `O=C(Nc1cccc(S(=O)(=O)NCc2ccco2)c1)C1CCN(C(=O)Nc2ccccc2)CC1`, the “TSA(with NAD+) / Primary screening (TSA) / delta Tm (K)” value amounted to 0.05 K.

With `Cc1ccc(Cc2cnc(NC(=O)CC(c3ccccc3)c3ccccc3)s2)cc1`, the “TSA(with NAD+) / Primary screening (TSA) / delta Tm (K)” value was 0.08 K.

Consider `O=C1NC(C(=O)O)=CC(c2ccccc2C(F)(F)F)N1` (stereo not drawn), for which the “TSA(with NAD+) / Primary screening (TSA) / delta Tm (K)” value was -0.12 K.

On to `COC(C)[C@@H](C)N` (stereo partly drawn), for which the “TSA(with NAD+) / Primary screening (TSA) / delta Tm (K)” value is given as -0.21 K.

Regarding `CC1CCN(C(=O)C23CC4CC(C2)CC(c2ccccc2)(C4)C3)CC1`, the “TSA(with NAD+) / Primary screening (TSA) / delta Tm (K)” value is -0.19 K.

On to `C=CCN(CC=C)C(CNc1ccc2nnnn2n1)C(C)C` (stereo not drawn), for which the “TSA(with NAD+) / Primary screening (TSA) / delta Tm (K)” value is -0.13 K.

Consider `O=C(Nc1cccc(S(=O)(=O)NCc2ccco2)c1)c1cc(-c2ccccc2)nc2ccccc12`, for which the “TSA(with NAD+) / Primary screening (TSA) / delta Tm (K)” value was found to be 0.19 K.

As to `O=C(c1n[nH]c2c1CCC2)N(CCc1ccccc1)Cc1ccncc1`, the “TSA(with NAD+) / Primary screening (TSA) / delta Tm (K)” value is 0.07 K.

With `C=CCOc1cccc(C2C(C(=O)c3ccco3)=C(O)C(=O)N2CCCN2CCOCC2)c1` (stereo not drawn), the “TSA(with NAD+) / Primary screening (TSA) / delta Tm (K)” value is listed as -0.11 K.

As to `Cc1ccc(C(=Nc2c(C)cc(C)cc2C)c2ccc(C)cc2)cc1`, the “TSA(with NAD+) / Primary screening (TSA) / delta Tm (K)” value is -0.03 K.

Consider `Cc1csc2c(N3CCC4CCC(C3)N4C)ncnc12` (stereo not drawn), for which the “TSA(with NAD+) / Primary screening (TSA) / delta Tm (K)” value is recorded as -0.02 K.

Regarding `Cc1sc2nc(-c3cccs3)nc(N3CCC(C(N)=O)CC3)c2c1C`, the “TSA(with NAD+) / Primary screening (TSA) / delta Tm (K)” value was 0.53 K.

For `C=CCC(C)N` (stereo not drawn), the “TSA(with NAD+) / Primary screening (TSA) / delta Tm (K)” value was -0.13 K.

For the compound `Cc1ccc2c(COC(=O)c3cccc(S(=O)(=O)N(C)c4ccccc4)c3)cc(=O)oc2c1C`, the “TSA(with NAD+) / Primary screening (TSA) / delta Tm (K)” value is reported as -0.06 K.

`Cc1[nH]ccc1C(=O)N(C)C1CC2CCC(C1)N2C(=O)OC(C)(C)C` (stereo not drawn): the “TSA(with NAD+) / Primary screening (TSA) / delta Tm (K)” value is given as -0.06 K.

Regarding `NCC(CN)(CO)CO`, the “TSA(with NAD+) / Primary screening (TSA) / delta Tm (K)” value is given as -0.12 K.

As to `COC(=O)C[C@@H](C)OC(=O)c1cc(F)ccc1F`, the “TSA(with NAD+) / Primary screening (TSA) / delta Tm (K)” value was -0.01 K.

In the case of `COc1ccccc1NS(=O)(=O)c1cccc(NC(=O)Cn2[nH]c(=O)c3ccccc3c2=O)c1`, the “TSA(with NAD+) / Primary screening (TSA) / delta Tm (K)” value was -0.03 K.

`CCN1CCN(c2ccc(NC(=O)NC(C)CCc3ccc(O)cc3)c(C)c2)CC1` (stereo not drawn): the “TSA(with NAD+) / Primary screening (TSA) / delta Tm (K)” value was -0.22 K.

As for `O=C1/C(=C/NNC(=O)C23CC4CC(CC(C4)C2)C3)c2ccccc2C(=O)N1Cc1ccccc1`, the “TSA(with NAD+) / Primary screening (TSA) / delta Tm (K)” value was found to be 0.56 K.

Take `O=C(NCc1cccc(C(F)(F)F)c1)c1sc2ccccc2c1Cl`: the “TSA(with NAD+) / Primary screening (TSA) / delta Tm (K)” value was -0.06 K.

For the compound `CCCOc1ccc(C(=O)C2=C(O)C(=O)N(CCN3CCOCC3)C2c2cccs2)cc1` (stereo not drawn), the “TSA(with NAD+) / Primary screening (TSA) / delta Tm (K)” value is reported as -0.13 K.

Consider `O=C1NC2(CCc3ccccc3C2)C(=O)N1Cc1nnc(-c2ccc(Cl)cc2)o1` (stereo not drawn), for which the “TSA(with NAD+) / Primary screening (TSA) / delta Tm (K)” value is on record as -0.03 K.

On to `Cc1nc(CN2CCCN(Cc3ccc(C(N)=O)cc3)CC2)no1`, for which the “TSA(with NAD+) / Primary screening (TSA) / delta Tm (K)” value is given as -0.14 K.

For `Cc1onc(-c2ccccc2)c1C(=O)NC1CCCc2ccccc21` (stereo not drawn), the “TSA(with NAD+) / Primary screening (TSA) / delta Tm (K)” value is given as -0.05 K.

On to `Cc1cnc(C(=O)N2CCCC2C(=O)Nc2ccccc2)cn1` (stereo not drawn), for which the “TSA(with NAD+) / Primary screening (TSA) / delta Tm (K)” value is on record as -0.23 K.

Take `COc1cc(C(=O)Nc2ncc(Cc3cccc(C)c3)s2)ccc1OCC(=O)N1CCOCC1`: the “TSA(with NAD+) / Primary screening (TSA) / delta Tm (K)” value was -0.09 K.

As for `COCCCNC(=O)/C(=C/c1ccc(OCc2ccccc2)cc1)c1nc2ccccc2[nH]1`, the “TSA(with NAD+) / Primary screening (TSA) / delta Tm (K)” value is -0.09 K.

For `CCC(N)CO` (stereo not drawn), the “TSA(with NAD+) / Primary screening (TSA) / delta Tm (K)” value stood at 0.09 K.

With `NC(=O)C1CCCCN1C(=O)CSc1nc2cc(Cl)ccc2[nH]1` (stereo not drawn), the “TSA(with NAD+) / Primary screening (TSA) / delta Tm (K)” value is listed as 0.02 K.

`CN(Cc1nc(-c2cccnc2)no1)Cc1c[nH]nc1-c1cccnc1`: the “TSA(with NAD+) / Primary screening (TSA) / delta Tm (K)” value was -0.01 K.

As to `COC(=O)c1ccc2[nH]c3c(c2c1)CN(c1cn[nH]c(=O)c1Cl)CC3`, the “TSA(with NAD+) / Primary screening (TSA) / delta Tm (K)” value was -0.03 K.
